Source: patent US20220205914A1, “PLATE IMAGER” (Q-STATE BIOSCIENCES, INC., priority 2020, published 2022)
At least one compound was matched to its structure with a doubt left.

Test system: IPSC-derived cardiomyocyte
Experiment: IPSC-derived cardiomyocyte validation assay: simultaneous voltage and calcium imaging on the plate reader
Assay type: cell-based
Conditions: at 0.3 μM; cardiomyocytes expressing jRGECO1a and CheRiff, loaded with BeRST1; blue light stimulation; 3 wells of each concentration

Q: For `COC(=O)C1=C(C)NC(C)=C(C(=O)OC)C1c1ccccc1[N+](=O)[O-]` [Nifedipine], which “voltage action potential waveform and calcium transients (voltage peak amplitude, integrated calcium area)” value is on record?
A: completely extinguished
